According to doi:10.1101/137844:
No constants are given. Whether binding was seen depends on the method and setting.

B1: RCD1 WWE (amino acids 1-170) (domain or fragment, UniProt Q8RY59 1-170)
chain: MEAKIVKVLDSSRCEDGFGKKRKRAASYAAYVTGVSCAKLQNVPPPNGQCQIPDKRRRLEGENKLSAYENRSGKALVRYYTYFKKTGIAKRVMMYENGEWNDLPEHVICAIQNELEEKSAAIEFKLCGHSFILDFLHMQRLDMETGAKTPLAWIDNAGKCFFPEIYESDE
B2: RCD1 WWE--- (amino acids 1-265) (domain or fragment, UniProt Q8RY59 1-265)
chain: MEAKIVKVLDSSRCEDGFGKKRKRAASYAAYVTGVSCAKLQNVPPPNGQCQIPDKRRRLEGENKLSAYENRSGKALVRYYTYFKKTGIAKRVMMYENGEWNDLPEHVICAIQNELEEKSAAIEFKLCGHSFILDFLHMQRLDMETGAKTPLAWIDNAGKCFFPEIYESDERTNYCHHKCVEDPKQNAPHDIKLRLEIDVNGGETPRLNLEECSDESGDNMMDDVPLAQRSSNEHYDEATEDSCSRKLEAAVSKWDETDAIVVSGA
B3: RCD1 PARP (amino acids 265-460) (domain or fragment, UniProt Q8RY59 265-460)
chain: AKLTGSEVLDKDAVKKMFAVGTASLGHVPVLDVGRFSSEIAEARLALFQKQVEITKKHRGDANVRYAWLPAKREVLSAVMMQGLGVGGAFIRKSIYGVGIHLTAADCPYFSARYCDVDENGVRYMVLCRVIMGNMELLRGDKAQFFSGGEEYDNGVDDIESPKNYIVWNINMNTHIFPEFVVRFKLSNLPNAEGNL
B4: RCD1 ---PARP (amino acids 170-460) (domain or fragment, UniProt Q8RY59 170-460)
chain: ERTNYCHHKCVEDPKQNAPHDIKLRLEIDVNGGETPRLNLEECSDESGDNMMDDVPLAQRSSNEHYDEATEDSCSRKLEAAVSKWDETDAIVVSGAKLTGSEVLDKDAVKKMFAVGTASLGHVPVLDVGRFSSEIAEARLALFQKQVEITKKHRGDANVRYAWLPAKREVLSAVMMQGLGVGGAFIRKSIYGVGIHLTAADCPYFSARYCDVDENGVRYMVLCRVIMGNMELLRGDKAQFFSGGEEYDNGVDDIESPKNYIVWNINMNTHIFPEFVVRFKLSNLPNAEGNL
B5: RCD1 WWE---PARP (amino acids 1-460) (domain or fragment, UniProt Q8RY59 1-460)
chain: MEAKIVKVLDSSRCEDGFGKKRKRAASYAAYVTGVSCAKLQNVPPPNGQCQIPDKRRRLEGENKLSAYENRSGKALVRYYTYFKKTGIAKRVMMYENGEWNDLPEHVICAIQNELEEKSAAIEFKLCGHSFILDFLHMQRLDMETGAKTPLAWIDNAGKCFFPEIYESDERTNYCHHKCVEDPKQNAPHDIKLRLEIDVNGGETPRLNLEECSDESGDNMMDDVPLAQRSSNEHYDEATEDSCSRKLEAAVSKWDETDAIVVSGAKLTGSEVLDKDAVKKMFAVGTASLGHVPVLDVGRFSSEIAEARLALFQKQVEITKKHRGDANVRYAWLPAKREVLSAVMMQGLGVGGAFIRKSIYGVGIHLTAADCPYFSARYCDVDENGVRYMVLCRVIMGNMELLRGDKAQFFSGGEEYDNGVDDIESPKNYIVWNINMNTHIFPEFVVRFKLSNLPNAEGNL

Biological target: HaRxL106ΔC (yeast two-hybrid bait) (Hyaloperonospora arabidopsidis (Emoy2))
Test: two-hybrid

binding, no binding:
B1, B2, B3, B4, B5
